Assay results as given in PubChem BioAssay AID493014 (National Center for Advancing Translational Sciences (NCATS), 2011).
Hit rate of the full screen: of about 340,000 compounds, about 170 (0.05%) were called active. The inconclusive results got no clear call from the source; some entries with a clear call stand among them for comparison. Calls come from the whole dose curve; as a rule, active = well fitted inhibition curve with a large enough effect in the signal ratio, with a control signal flat (not every such curve was filed as active); inconclusive = small, poorly fitted or top-dose-only effect, or effect the other way, or a change in a side signal; inactive = flat fitted curve, though single readings scatter; the % refers to the signal ratio. A potency beside an inconclusive call is a rough fit, not a confirmed value.

Assay: qHTS Assay to Find Inhibitors of Chronic Active B-Cell Receptor Signaling;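 for activity change, negative = inhibition: plate controls were basal doxycycline-induced cells for no effect and cells given 10 µM MG132 for full effect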
Settings: ABC-DLBCL IkBa-CBG/CBR reporter, luminescence ratio (green luciferase fused to IkBa over red control in TMD8 lymphoma cells), 4 h; activity change, negative = inhibition: at 46.1 µM (top of the series)
In short: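 TMD8 ABC-DLBCL cells carrying doxycycline-inducible green luciferase fused to IkappaBalpha plus unfused red luciferase were exposed to compounds (up to 46 uM) for 4 hrs at 37C. Activity came from the overlap-corrected green/red luminescence ratio.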
Potency is the fitted concentration of half-maximal effect.

Compound	Potency	activity change, negative = inhibition
CN(C)S(=O)(=O)c1ccc(Cl)c(NC(=O)CSc2nnnn2-c2ccc(O)cc2)c1	inconclusive: 15.8 µM [falling, partial curve]	
Cc1ccc(C)n1-c1sc2c(c1C#N)CCC(C)C2 (stereo unspecified)	inconclusive: 2.59 µM [falling, partial curve, poor fit]	
CSc1c(C#N)c(N)nc2sc(C(=O)c3ccc(Cl)c(Cl)c3)c(N)c12	inconclusive: 4.47 µM [falling, full curve, poor fit]	
O=C(c1ccc(F)cc1)N(C(=O)c1ccc(F)cc1)c1ncccn1	inconclusive: 35.5 µM [falling, single point]	
CCOC(=O)CC(NS(=O)(=O)c1ccc2[nH]c3c(c2c1)CCCC3)c1ccccc1Cl (stereo unspecified)		inconclusive: 12.6%
O=C(NCC(c1ccco1)N1CCN(c2ccc(F)cc2)CC1)c1ccco1 (stereo unspecified)		inconclusive: 12.9%
CC(=O)Nc1ccc(OC(=O)c2ccc(Br)c([N+](=O)[O-])c2)cc1		inconclusive: -4.48%
Cn1c(C=O)c(C#Cc2ccccc2)c2ccccc21		inconclusive: 5.24%
Fc1ccc(-c2nnc(-c3ccc(Cl)cc3Cl)o2)cc1		inconclusive: -17.2%
CCc1ccc(OCc2n[nH]c(=S)n2C(C)CCCC(C)C)cc1 (stereo unspecified)		inconclusive: -7.13%
CC1(C)Cc2nc3sc4c(N(CCO)CCO)nnnc4c3cc2CO1		inactive
S=C(NCCc1ccc(Cl)cc1)Nc1ccc(Cl)cc1Cl		inconclusive: 23.7%
COc1cc(/C=N/NC(=O)c2nnn(-c3nonc3N)c2-c2cccs2)ccc1O		inactive
Cc1onc(-c2ccccc2)c1C(=O)NC(C)c1ccc2c(c1)OCO2 (stereo unspecified)		inconclusive: -0.383%
O=C1C=C(c2cc3ccccc3o2)C[C@@H](c2ccc(F)cc2)C1		inconclusive: 11.4%
CCOC(=O)Cc1csc(NC(=O)c2ccc(OC)c(OC)c2)n1	inconclusive: 20 µM [falling, partial curve, poor fit]	
Cc1cc([N+](=O)[O-])ccc1NC(=O)CCC(=O)N1CCCCCC1		inconclusive: 4.98%
Fc1ccccc1-c1nc2nc3ccccc3nc2n1CC1CCCO1 (stereo unspecified)		inactive
CC(C)C(=O)Nc1ccc2c(c1)nc(CCN1CCN(c3ccccc3)CC1)n2C		inconclusive: -29.7%
COc1cc(OC)c(OC)cc1/C=C/c1nc2cc3ccccc3cc2c(=O)n1-c1ccc(Cl)cc1	inconclusive: 3.55 µM [falling, partial curve]	
COCC(C)n1c(SCC(=O)N2CCc3ccccc3C2)nc2ccccc2c1=O (stereo unspecified)		inactive

Arranged by length of the SMILES (rising): 3 of the compounds above.
Compound	Potency	activity change, negative = inhibition
Cn1c(C=O)c(C#Cc2ccccc2)c2ccccc21		inconclusive: 5.24%
O=C(c1ccc(F)cc1)N(C(=O)c1ccc(F)cc1)c1ncccn1	inconclusive: 35.5 µM [falling, single point]	
O=C1C=C(c2cc3ccccc3o2)C[C@@H](c2ccc(F)cc2)C1		inconclusive: 11.4%

The list continues.

Compound	Potency	activity change, negative = inhibition
COc1ccc(C)cc1N(CC(=O)Nc1cccnc1)S(=O)(=O)c1ccc(C)cc1	inconclusive: 8.91 µM [rising, partial curve, poor fit]	
COC(=O)c1oc2c(c1C)C1(CCC2)SCCS1		inconclusive: -10.7%
CCCCn1c(N)c(N(CCOC)C(=O)COC(=O)CSc2cc(C)c3ccccc3n2)c(=O)[nH]c1=O		inactive
CC(OC(=O)c1ccccc1CCc1ccccc1)C(N)=O (stereo unspecified)		inconclusive: -4.19%
CCN(CC)c1ccc(NC(=O)c2cccc(C)c2)cc1S(=O)(=O)Nc1ccccc1OC		inactive
COc1ccc(C(=O)N2CCN(Cc3ccccc3C)CC2)cc1OC		inconclusive: 6.54%
COc1cc(CNCCO)cc(Cl)c1OCc1ccc(Cl)cc1Cl		inconclusive: 13.2%
N#Cc1nc(-c2cccs2)oc1NCc1ccc(Cl)cc1	inconclusive: 29.1 µM [falling, single point]	
COc1ccc(-c2cc(-c3ccccc3)n3ncnc3n2)cc1		inconclusive: -13.5%
CCN(CC)c1ccc(/C=C(\C#N)C(=O)NCc2ccco2)cc1		inconclusive: -19.9%
Cc1ccc(-n2nc(C)c(NC(=O)CCl)c2C)cc1	inconclusive: 20.6 µM [falling, partial curve, poor fit]	
Cc1nc(SCC(=O)N2CC(=O)Nc3ccccc32)c2c(C)c(C)sc2n1		inconclusive: 3.7%
O=C(NCc1ccccc1)C(c1ccc(F)cc1)N(C(=O)c1csnn1)c1ccccc1 (stereo unspecified)		inconclusive: -0.499%
CCOC(=O)c1c(NC(=O)COc2ccccc2C#N)sc2c1CC(C)(C)NC2(C)C		inconclusive: 10.5%
Cc1cccc(NS(=O)(=O)c2ccc(Br)s2)n1		inactive
COc1cccc(O)c1CN1CCCC(C(=O)c2cccc(C(F)(F)F)c2)C1 (stereo unspecified)		inactive
CN(C)CC(C(=O)c1ccccc1)c1ccccc1 (stereo unspecified)	inconclusive: 32.6 µM [rising, single point]	
COc1cc(/C=C/C(=O)c2cccc([N+](=O)[O-])c2)cc(OC)c1OC		inactive
CC(C)[C@@H]1COC(c2cccc(C3=N[C@H](C(C)C)CO3)c2)=N1		inconclusive: 20.9%
CN(c1ccccc1)S(=O)(=O)c1cccc(NC(=O)c2cc(=O)c3ccccc3o2)c1		inactive
O=C(CSc1ccc(-c2ccccn2)nn1)NCc1ccccc1		inactive

Compound	Potency	activity change, negative = inhibition
Cc1ccc(C(C)C)cc1OCC(=O)N/N=C/c1ccc2c(c1)OCCO2	inconclusive: 25.9 µM [falling, single point]	
O=c1c2ccccc2nc(COc2ccccc2)n1/N=C/c1ccc(O)c(O)c1	inconclusive: 22.4 µM [falling, single point]	
O=C(Nc1cccc2ccccc12)NC1CCS(=O)(=O)C1 (stereo unspecified)		inconclusive: 1.87%
O=C(c1ccco1)N1CCN(C(=O)c2ccc(-c3ccc(Cl)cc3)o2)CC1		inconclusive: -26.7%
COc1cccc(NC(=S)NC(=O)Cc2ccc(Cl)cc2)c1		inconclusive: -16.2%
OC(CNCc1ccco1)COc1ccccc1 (stereo unspecified)		inactive
O=C(NCC1CCCO1)c1ccc(N2CCCCC2)c([N+](=O)[O-])c1 (stereo unspecified)		inconclusive: 12.7%
O=C(O)/C=C/c1ccc([N+](=O)[O-])o1		inactive
CCOc1ncccc1C(=O)OCC(=O)c1cc(OC)ccc1OC	inconclusive: 22.4 µM [falling, single point]	
Nc1nc(-c2ccccc2)c(N=Nc2cccc3ccccc23)s1	inconclusive: 9.2 µM [rising, partial curve, poor fit]	
Nc1ccc(C(=O)N2CCN(S(=O)(=O)c3ccc4c(c3)OCCCO4)CC2)cc1[N+](=O)[O-]		inconclusive: -7.3%
O=C(CSC1=NC2(CCCCC2)N=C1c1ccccc1)Nc1ccc2c(c1)OCCO2		inactive
C/C(=N\NC(=O)c1ccccc1[N+](=O)[O-])c1ccc(Br)s1	inconclusive: 22.4 µM [falling, single point]	
Clc1cccc(Cl)c1COc1ccncc1		inconclusive: 7.62%
CC(=O)N1CCC(C(=O)Nc2ccc(S(=O)(=O)N3CCCCC3)cc2)CC1		inactive
Cc1cc2cc(CN(Cc3nnnn3C3CCCCC3)CC3CCCO3)c(=O)[nH]c2cc1C (stereo unspecified)		inactive
Cn1nnnc1Sc1ncnc2scc(-c3ccc(F)cc3)c12	inconclusive: 35.5 µM [falling, single point]	
O=C(NC1CCCCC1)c1sc(N2CCOCC2)nc1-c1ccccc1		inactive
COc1ccccc1-c1nc(-c2ccncc2)no1	inconclusive: 20 µM [falling, single point]	
CCOC(=O)c1cnn2c(C(F)(F)F)cc(-c3ccccc3)nc12		inactive
Cc1ccccc1-c1nsc(SCC(=O)Nc2ccc3c(c2)OCO3)n1	inconclusive: 0.206 µM [rising, full curve, poor fit]	

Compound	Potency	activity change, negative = inhibition
COc1ccc(N=Cc2c(C)[nH][nH]c2=O)cc1	inconclusive: 0.1 µM [falling, full curve, poor fit]	
O=C(CSc1ncnc2c1nnn2Cc1ccccc1F)NCC1CCCO1 (stereo unspecified)		inconclusive: -25.3%
Nc1ccc(-c2nc3ccccc3[nH]2)cc1		inconclusive: -6.57%
C/C=C(\C)C(=O)OC1c2c(ccc3ccc(=O)oc23)OC(C)(C)C1OC(C)=O (stereo unspecified)		inactive
CCCCCc1nnc(NC(=O)C2COc3ccccc3O2)s1 (stereo unspecified)		inconclusive: 4.5%
O=C(NC1CC(=O)N(c2cccc(F)c2)C1)c1ccc(Br)o1 (stereo unspecified)		inactive
Cc1ccc(NC(=O)/C(C#N)=C/c2ccc(Sc3nc(C)cc(C)n3)o2)cc1		inconclusive: 8.7%
CC(C)c1nnc(NC(=O)CCS(=O)(=O)c2ccccc2)s1	inconclusive: 11.2 µM [falling, partial curve]	
Cc1ccc(Nc2nc(-c3sc(NC(=O)c4ccccc4)nc3C)cs2)cc1		inconclusive: -19.3%
Cc1ccc(CNC(=O)c2cc3c(=O)n4ccccc4nc3n(Cc3ccco3)c2=N)cc1		inconclusive: -1.62%
O=C(O)c1cc(-n2c(/C=C\c3ccc(F)cc3)nc3ccccc3c2=O)ccc1Cl		inconclusive: 32.3%
COc1cccc(C(=O)O/N=C(\N)c2ccc(C)cc2)c1		inconclusive: -14%
CCCn1c(N2CCN(Cc3cccc(C)c3)CC2)nc2c1c(=O)[nH]c(=O)n2C	inconclusive: 6.51 µM [falling, partial curve, poor fit]	
O=C(Nc1ccc(F)cc1)Nc1nnc(-c2ccco2)s1		inconclusive: -10.8%
CCc1ccc(O)c(CNCCNCc2cc(CC)ccc2O)c1	inconclusive: 10.3 µM [falling, partial curve, poor fit]	
CC1CCN(c2nc3c(c(=O)n(C)c(=O)n3C)n2CCSc2nc3ccccc3o2)CC1		inconclusive: -0.482%
CCC(C)NC(=O)c1nn(Cc2ccccc2)c(=O)c2ccccc12 (stereo unspecified)		inconclusive: 11.5%
Cc1ccc([C@@H]2CC=C(C(=O)O)[C@H](c3ccc(C(C)(C)C)cc3)N2S(=O)(=O)c2ccc(C)cc2)cc1		inconclusive: -6.24%

An excerpt of these results, comma-delimited.
Compound,Potency,"activity change, negative = inhibition"
CCc1ccc(O)c(CNCCNCc2cc(CC)ccc2O)c1,"inconclusive: 10.3 µM [falling, partial curve, poor fit]",
CC1CCN(c2nc3c(c(=O)n(C)c(=O)n3C)n2CCSc2nc3ccccc3o2)CC1,,inconclusive: -0.482%
